Literature values in patent publication US20070198063A1, “Electrical devices and anti-scarring drug combinations” (priority 2005, published 2007).

Key:
[1] = steroid combined with a subtherapeutic dose of an azole; steroid at 5 mg/day with 100 mg ketoconazole; cited from earlier work
[2] = 200 mg/day orally; cited from earlier work

SMILES: CC(=O)N1CCN(c2ccc(OC[C@@H]3CO[C@@](Cn4ccnc4)(c4ccc(Cl)cc4Cl)O3)cc2)CC1 (racemic) [ketoconazole]
- enhancement of the steroid activity / potency [1]: 10 fold
- serum concentration [2]: about 3.2 micrograms
